Test results published in US20120289681A1, “CONJUGATES OF CELL-PENETRATING PEPTIDES AND PHOSPHORESCENT METALLOPORPHYRINS FOR INTRACELLULAR OXYGEN MEASUREMENT” (UNIVERSITY COLLEGE CORK, NATIONAL UNIVERSITY OF IRELAND CORK, priority 2009, published 2012).
Residues, ends and D or L forms follow the SMILES beside them. *: point of attachment. X1 = CCOC(=O)CCC1=C(C)c2cc3[nH]c(cc4nc(cc5[nH]c(cc1n2)c(C)c5CCC(=O)OCC)C(C)=C4CCC(=O)NCCNC(=O)CCN1C(=O)CC(*)C1=O)c(C)c3CCC(=O)OCC

What was measured:
[1] = tested on: PC12 cells; test: Oxygen calibration of the intracellular probe (phosphorescence lifetime in hypoxia chamber); type: cell-based; settings: non-respiring PC12 cells (antimycin A)
[2] = tested on: cells; test: Intracellular localisation by fluorescent imaging (cell line not stated); type: cell-based

Row | Molecule | phosphorescence lifetime in deoxygenated conditions ([1]; deoxygenated) [us] | average phosphorescence lifetime under normoxia ([1]; normoxia 20.8% O2) [us] | intracellular localisation (in words) [2]
1 | CCOC(=O)CCC1=C(C)c2cc3[nH]c(cc4nc(cc5[nH]c(cc1n2)c(C)c5CCC(=O)OCC)C(C)=C4CCC(=O)NCCNC(=O)CCN1C(=O)CC(SC[C@H](N)C(=O)N[C@@H](Cc2ccccc2)C(=O)N[C@@H](CCCNC(=N)N)C(=O)N[C@@H](CCCNC(=N)N)C(=O)N[C@@H](CCCNC(=N)N)C(=O)N[C@@H](CCCNC(=N)N)C(=O)N[C@@H](CCCNC(=N)N)C(=O)N[C@@H](CCCNC(=N)N)C(=O)N[C@@H](CCCNC(=N)N)C(=O)N[C@@H](CCCNC(=N)N)C(=O)N[C@@H](CCCNC(=N)N)C(=O)O)C1=O)c(C)c3CCC(=O)OCC (stereo partly shown) [PTCPTE-CFR9] (H-C(X1)FRRRRRRRRR-OH; N-terminus assumed) | 65 | 33±2 | 
2 | PEPP5: MTS-CGR9 peptide MGRTVVVLGGGISGLAAGCGRRRRRRRRR labelled with PTCPTE-MI derivative (PTCPTE-MI label) |  |  | preferential co-localisation with mitochondria
3 | Pt-tetrakis(pyridinium)porphine tetrachloride [reference compound] |  |  | accumulated in the nuclei
